At least one compound was matched to its structure with a doubt left.
How the values were obtained:
[1] = test system: Ba/F3-FLT3-ITD cells expressing the TKD point mutations; test: Growth of Ba/F3-FLT3-ITD cells expressing TKD point mutations; assay type: cell-based, murine; conditions: approximately 24 hr treatment
[2] = test system: Ba/F3-FLT3-ITD-luc+ cells; test: Non-invasive in vivo bioluminescence study; conditions: 15 mg/kg and 50 mg/kg once daily IP; 9 days of treatment

CC(=O)c1cc([N+](=O)[O-])c(Sc2ccc(F)cc2F)s1 [P22077]
Potency against TKD point mutants versus Ba/F3-FLT3-ITD [1]: equipotent | Growth of Ba/F3-FLT3-ITD-luc+ cells in mice [2]: visibly suppressed the growth

— patent publication US11136409B2, “Compositions and methods for identification, assessment, prevention, and treatment of AML using USP10 biomarkers and modulators” (Dana-Farber Cancer Institute, Inc., priority 2016, dated 2021)
